Measurements published in PubChem BioAssay (NCATS).
Inconclusive means that the source gave no clear call. Such entries were picked first, then a sample of the others. A potency beside an inconclusive call is a rough fit, not a confirmed value. Calls of active or inactive are those of the source. Calls follow the shape of the dose curve; as a rule, active = well fitted curve in the direction sought with a large enough effect; inconclusive = small, poorly fitted or top-dose-only effect, or another doubt; inactive = no such curve, though single readings can be large; an effect the other way counts as inactive or inconclusive.

Legend:
[1] = Quantitative High-Throughput drug screen in 47 multiple myeloma cell lines against the NCATS MIPE library collection: JJN3_DSMZ cell viability assay (AID 1918966; also: nearly all actives have a fitted effect of over 50% in size); conditions: JJN3 myeloma cells viability, CellTiter-Glo ATP, 48 h; viability, % of DMSO: at 45.8 µM (top of the series)
How it was run: (§1)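 Myeloma cells (500 per well) were exposed to MIPE 4.0 compounds by pin transfer and incubated 48 hours at 37C, 5% CO2. Viability was read as ATP by CellTiter-Glo luminescence, normalised to DMSO (100%) and media-only (0%) wells.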

[2] = Quantitative High-Throughput drug screen in 47 multiple myeloma cell lines against the NCATS MIPE library collection: KMS27_JCRB cell viability assay (AID 1918970); conditions: KMS27 myeloma cells, CellTiter-Glo ATP viability, 48 h; viability (% of DMSO): at 45.8 µM (top of the series); also: nearly all actives have a fitted effect of over 30% in size
How it was run: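 ATP-based viability (CellTiter-Glo luminescence) is measured in cells treated 48 h with approved and investigational drugs at 37 °C. Controls are DMSO-only wells for full viability and media-only wells for none.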

[3] = Quantitative High-Throughput drug screen in 47 multiple myeloma cell lines against the NCATS MIPE library collection: KMS12BM_JCRB cell viability assay (AID 1918971); also: nearly all actives have a fitted effect of over 35% in size
How it was run: (§2)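 Inhibition of cell viability is measured here. Each line was plated at 500 cells per well, treated with MIPE 4.0 drugs, kept 48 hours at 37C, then assayed for ATP content by CellTiter-Glo luminescence.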

[4] = Quantitative High-Throughput drug screen in 47 multiple myeloma cell lines against the NCATS MIPE library collection: KMS20_JCRB cell viability assay (AID 1918973); conditions: CellTiter-Glo ATP, 48 h; viability (% of DMSO): at 45.8 µM (top of the series); also: nearly all actives have a fitted effect of over 45% in size
How it was run: as §1

[5] = Quantitative High-Throughput drug screen in 47 multiple myeloma cell lines against the NCATS MIPE library collection: KMS21BM_JCRB cell viability assay (AID 1918974); conditions: ATP luminescence, 48 h; viability: at 45.8 µM (top of the series) unless noted
How it was run: as §1

[6] = Quantitative High-Throughput drug screen in 47 multiple myeloma cell lines against the NCATS MIPE library collection: KMS26_JCRB cell viability assay (AID 1918975); conditions: KMS26 myeloma cells viability, CellTiter-Glo ATP, 48 h; viability (% of DMSO): at 45.8 µM (top of the series); also: nearly all actives have a fitted effect of over 45% in size
How it was run: as §2

[7] = Quantitative High-Throughput drug screen in 47 multiple myeloma cell lines against the NCATS MIPE library collection: MMM1_PLB cell viability assay (AID 1918976); also: nearly all actives have a fitted effect of over 35% in size
How it was run: (§3)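 qHTS format: cells plated (500/well), pin-dosed with MIPE 4.0 compounds, kept 48 h at 37 °C. Readout was CellTiter-Glo luminescence, median RLU.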

[8] = Quantitative High-Throughput drug screen in 47 multiple myeloma cell lines against the NCATS MIPE library collection: MOLP8_DSMZ cell viability assay (AID 1918977); conditions: MOLP8 myeloma viability, CellTiter-Glo ATP luminescence, 48 h; viability (% of control): at 45.8 µM (top of the series); also: nearly all actives have a fitted effect of over 45% in size
How it was run: as §3

[9] = Quantitative High-Throughput drug screen in 47 multiple myeloma cell lines against the NCATS MIPE library collection: NCIH929_DSMZ cell viability assay (AID 1918978); also: nearly all actives have a fitted effect of over 35% in size
How it was run: as §3

[10] = Quantitative High-Throughput drug screen in 47 multiple myeloma cell lines against the NCATS MIPE library collection: OCIMY1_PLB cell viability assay (AID 1918979); also: nearly all actives have a fitted effect of over 35% in size
How it was run: as §3

[11] = Quantitative High-Throughput drug screen in 47 multiple myeloma cell lines against the NCATS MIPE library collection: MM1S_ATCC cell viability assay (AID 1918980); also: nearly all actives have a fitted effect of over 45% in size
How it was run: as §3

[12] = Quantitative High-Throughput drug screen in 47 multiple myeloma cell lines against the NCATS MIPE library collection: MM1R_ATCC cell viability assay (AID 1918981); also: nearly all actives have a fitted effect of over 35% in size
How it was run: as §3

[13] = Quantitative High-Throughput drug screen in 47 multiple myeloma cell lines against the NCATS MIPE library collection: INA6_PLB cell viability assay (AID 1918965; also: nearly all actives have a fitted effect of over 55% in size); conditions: INA6 myeloma viability, CellTiter-Glo ATP luminescence, 48 h; viability (% of control): at 45.8 µM (top of the series)
How it was run: (§4)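 Luminescent ATP measurement with CellTiter-Glo gives viability, scaled between DMSO-only wells (100%) and media-only wells (0%). Cells, 500 per well, faced library compounds for 48 hours at 37C.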

[14] = Quantitative High-Throughput drug screen in 47 multiple myeloma cell lines against the NCATS MIPE library collection: H1112_PLB cell viability assay (AID 1918967; also: nearly all actives have a fitted effect of over 30% in size); conditions: H1112 myeloma cells viability, ATP luminescence, 48 h; viability: at 45.8 µM (top of the series)
How it was run: as §1

[15] = Quantitative High-Throughput drug screen in 47 multiple myeloma cell lines against the NCATS MIPE library collection: KMS12PE_JCRB cell viability assay (AID 1918972); conditions: KMS12PE myeloma viability, CellTiter-Glo ATP, 48 h; viability: at 45.8 µM (top of the series); also: nearly all actives have a fitted effect of over 30% in size
How it was run: as §4

[16] = Quantitative High-Throughput drug screen in 47 multiple myeloma cell lines against the NCATS MIPE library collection: KMS28PE_JCRB cell viability assay (AID 1918983); also: nearly all actives have a fitted effect of over 35% in size
How it was run: as §3

[17] = Quantitative High-Throughput drug screen in 47 multiple myeloma cell lines against the NCATS MIPE library collection: Karpas25_ECACC cell viability assay (AID 1918968; also: nearly all actives have a fitted effect of over 35% in size); conditions: Karpas25 myeloma viability, CellTiter-Glo ATP, 48 h; viability (% of control): at 45.8 µM (top of the series)
How it was run: as §1

[18] = Quantitative High-Throughput drug screen in 47 multiple myeloma cell lines against the NCATS MIPE library collection: LP1_DSMZ cell viability assay (AID 1918982); also: nearly all actives have a fitted effect of over 35% in size
How it was run: as §3
Potency is read from the fitted curve at half-maximal effect.

COCCNCCCn1c(C(=O)CF)c(-c2ccc(C)cc2)c2c(N)ncnc21
inconclusive: Potency [1] 26.4 µM [cytotoxic, single point] | Potency [2] 0.0059 µM [cytotoxic, full curve, poor fit] | Potency [3] 2.35 µM [cytotoxic, partial curve, poor fit] | Potency [4] 3.32 µM [cytotoxic, partial curve, poor fit] | Potency [5] 16.6 µM [rising, partial curve, poor fit] | Potency [7] 11.8 µM [cytotoxic, partial curve, poor fit] | Potency [8] 10.5 µM [cytotoxic, partial curve, poor fit] | Potency [11] 23.5 µM [cytotoxic, single point]
active: Potency [12] 2.64 µM
inactive: Potency [6] | Potency [9] | Potency [10]

CCC(=O)NC[C@H](Cc1ccc(OCCc2nc(-c3ccccc3)oc2C)cc1)NC(C)=CC(=O)c1ccc(C(F)(F)F)cc1
active: Potency [15] 7.43 µM | Potency [6] 20.9 µM
inactive: Potency [14] | Potency [4]
inconclusive: Potency [13] 37.2 µM [cytotoxic, single point] | Potency [1] 37.2 µM [cytotoxic, single point] | Potency [2] 5.26 µM [cytotoxic, full curve] | Potency [10] 26.4 µM [cytotoxic, single point] | Potency [12] 4.69 µM [cytotoxic, partial curve, poor fit]

CNC1CCC(N(Cc2cccc(-c3ccncc3)c2)C(=O)c2sc3c(F)ccc(F)c3c2Cl)CC1 (stereo unspecified)
active: Potency [6] 16.6 µM | Potency [10] 23.5 µM | Potency [16] 16.6 µM
inconclusive: Potency [1] 18.7 µM [cytotoxic, partial curve, poor fit] | Potency [3] 33.2 µM [cytotoxic, single point] | Potency [5] 7.43 µM [cytotoxic, full curve, poor fit] | Potency [8] 8.33 µM [cytotoxic, partial curve, poor fit]

COC(=O)N[C@H](C(=O)N1CCC[C@@H]1c1ncc(-c2ccc(-c3ccc(-c4cnc([C@@H]5CCCN5C(=O)[C@@H](NC(=O)OC)C(C)C)[nH]4)cc3)cc2)[nH]1)C(C)C
inconclusive: Potency [13] 37.2 µM [cytotoxic, single point] | Potency [14] 26.4 µM [cytotoxic, single point] | Potency [4] 2.96 µM [cytotoxic, full curve, poor fit] | Potency [5] 20.9 µM [cytotoxic, partial curve, poor fit] | Potency [6] 29.6 µM [cytotoxic, single point] | Potency [7] 26.4 µM [cytotoxic, partial curve, poor fit] | Potency [8] 33.2 µM [cytotoxic, single point] | Potency [10] 33.2 µM [cytotoxic, partial curve, poor fit] | Potency [11] 26.4 µM [cytotoxic, single point] | Potency [16] 33.2 µM [cytotoxic, single point]
active: Potency [15] 16.6 µM

Nc1ccn([C@@H]2O[C@H](CO)[C@@H](O)[C@H]2O)c(=O)n1
inactive: Potency [1] | Potency [3] | Potency [6] | Potency [16]
inconclusive: Potency [13] 0.118 µM [cytotoxic, full curve] | Potency [14] 1.18 µM [cytotoxic, partial curve] | Potency [2] 3.72 µM [cytotoxic, full curve] | viability (% of DMSO) [4] 24% [cytotoxic] | Potency [7] 0.0033 µM [rising, full curve, poor fit] | Potency [10] 0.0013 µM [rising, full curve, poor fit] | Potency [11] 0.0012 µM [rising, full curve]

Cc1ccc(C(C)(O)c2nc3ccccc3s2)c(C)c1 (stereo unspecified)
inactive: Potency [1] | Potency [4]
inconclusive: Potency [2] 4.18 µM [cytotoxic, full curve] | Potency [3] 37.2 µM [cytotoxic, single point] | Potency [7] 0.0118 µM [rising, full curve] | Potency [8] 37.2 µM [cytotoxic, single point] | Potency [11] 2.35 µM [cytotoxic, full curve, poor fit] | Potency [12] 37.2 µM [cytotoxic, single point] | Potency [16] 26.4 µM [rising, partial curve, poor fit]

N#C[C@H]1C[C@H]2C[C@@H]2N1C(=O)[C@@H](N)C12CC3CC(CC(O)(C3)C1)C2
inconclusive: Potency [13] 18.7 µM [cytotoxic, partial curve, poor fit] | Potency [1] 2.09 µM [cytotoxic, full curve, poor fit] | Potency [14] 0.0209 µM [cytotoxic, partial curve, poor fit] | Potency [17] 0.418 µM [cytotoxic, partial curve, poor fit] | Potency [3] 0.0296 µM [cytotoxic, full curve, poor fit] | Potency [4] 5.9 µM [cytotoxic, partial curve, poor fit] | Potency [5] 33.2 µM [rising, single point] | Potency [8] 13.2 µM [cytotoxic, partial curve, poor fit] | Potency [12] 14.8 µM [cytotoxic, partial curve, poor fit]
inactive: Potency [15] | Potency [16]

CS(=O)(=O)OCCCCOS(C)(=O)=O
inconclusive: Potency [1] 18.7 µM [cytotoxic, partial curve, poor fit] | Potency [2] 7.43 µM [cytotoxic, partial curve, poor fit] | Potency [3] 10.5 µM [cytotoxic, partial curve, poor fit] | Potency [5] 37.2 µM [rising, partial curve] | Potency [6] 2.35 µM [cytotoxic, full curve, poor fit] | Potency [8] 3.32 µM [cytotoxic, full curve, poor fit] | Potency [18] 0.0166 µM [rising, full curve, poor fit]
active: Potency [16] 13.2 µM
inactive: Potency [13] | Potency [4] | Potency [10] | Potency [11]

CNC[C@H](O)c1cccc(O)c1
inconclusive: Potency [1] 0.0033 µM [rising, full curve, poor fit] | Potency [3] 0.0023 µM [rising, full curve] | Potency [4] 0.0264 µM [rising, full curve, poor fit] | Potency [7] 1.32 µM [rising, partial curve] | Potency [8] 0.469 µM [rising, full curve, poor fit] | Potency [12] 6.62 µM [cytotoxic, partial curve, poor fit]
inactive: Potency [13] | Potency [6] | Potency [10] | Potency [11] | Potency [18] | Potency [16]

CC(C)n1cnc2c(NCCCCCCNC(=O)OC(C)(C)C)nc(NCCO)nc21
active: Potency [11] 20.9 µM | Potency [12] 20.9 µM | Potency [16] 18.7 µM
inconclusive: Potency [1] 23.5 µM [cytotoxic, partial curve, poor fit] | Potency [2] 0.0264 µM [cytotoxic, full curve, poor fit] | Potency [15] 5.26 µM [cytotoxic, partial curve, poor fit] | Potency [5] 37.2 µM [rising, partial curve, poor fit] | Potency [8] 0.0209 µM [rising, full curve, poor fit] | Potency [9] 33.2 µM [cytotoxic, partial curve, poor fit] | Potency [10] 37.2 µM [cytotoxic, single point]

2 neighbouring compounds from above, for reference:
N#C[C@H]1C[C@H]2C[C@@H]2N1C(=O)[C@@H](N)C12CC3CC(CC(O)(C3)C1)C2
inconclusive: Potency [13] 18.7 µM [cytotoxic, partial curve, poor fit] | Potency [1] 2.09 µM [cytotoxic, full curve, poor fit] | Potency [14] 0.0209 µM [cytotoxic, partial curve, poor fit] | Potency [17] 0.418 µM [cytotoxic, partial curve, poor fit] | Potency [3] 0.0296 µM [cytotoxic, full curve, poor fit] | Potency [4] 5.9 µM [cytotoxic, partial curve, poor fit] | Potency [5] 33.2 µM [rising, single point] | Potency [8] 13.2 µM [cytotoxic, partial curve, poor fit] | Potency [12] 14.8 µM [cytotoxic, partial curve, poor fit]
inactive: Potency [15] | Potency [16]

CS(=O)(=O)OCCCCOS(C)(=O)=O
inconclusive: Potency [1] 18.7 µM [cytotoxic, partial curve, poor fit] | Potency [2] 7.43 µM [cytotoxic, partial curve, poor fit] | Potency [3] 10.5 µM [cytotoxic, partial curve, poor fit] | Potency [5] 37.2 µM [rising, partial curve] | Potency [6] 2.35 µM [cytotoxic, full curve, poor fit] | Potency [8] 3.32 µM [cytotoxic, full curve, poor fit] | Potency [18] 0.0166 µM [rising, full curve, poor fit]
active: Potency [16] 13.2 µM
inactive: Potency [13] | Potency [4] | Potency [10] | Potency [11]

Going on with the list.

CN(C)C1CCN(C(=O)c2ccc(NC(=O)Nc3nc(N4CCOCC4)nc(N4CCOCC4)n3)cc2)CC1
inconclusive: Potency [13] 0.0166 µM [cytotoxic, full curve] | Potency [14] 0.743 µM [cytotoxic, full curve] | Potency [17] 0.0026 µM [cytotoxic, full curve] | Potency [2] 0.0418 µM [cytotoxic, full curve] | viability [5] 3.92% [cytotoxic] | Potency [8] 0.0066 µM [cytotoxic, full curve] | Potency [9] 0.0469 µM [cytotoxic, full curve] | Potency [18] 0.0418 µM [cytotoxic, full curve]
active: Potency [4] 0.105 µM | Potency [6] 0.0209 µM | Potency [16] 0.0132 µM

CNS(=O)(=O)Cc1ccc2[nH]cc(CCN(C)C)c2c1
inactive: Potency [14] | Potency [2] | Potency [3] | Potency [4] | Potency [6]
inconclusive: Potency [13] 13.2 µM [cytotoxic, partial curve, poor fit] | Potency [1] 0.0083 µM [rising, full curve, poor fit] | Potency [7] 0.003 µM [rising, full curve, poor fit] | Potency [8] 0.003 µM [cytotoxic, full curve, poor fit] | Potency [11] 0.0469 µM [rising, full curve] | Potency [16] 0.0059 µM [rising, full curve, poor fit]
